# Results are given in words; binding and its absence hold for the method and conditions named. Where a sequence is shown, tags or fusion partners need not be part of it.
# B1: FtsK-YPet (wild-type E. coli FtsK with a C-terminal YPet fusion) (natural protein, UniProt P46889 1-1329, looked up)
# chain: MSQEYIEDKEVTLTKLSSGRRLLEALLILIVLFAVWLMAALLSFNPSDPSWSQTAWHEPIHNLGGMPGAWLADTLFFIFGVMAYTIPVIIVGGCWFAWRHQSSDEYIDYFAVSLRIIGVLALILTSCGLAAINADDIWYFASGGVIGSLLSTTLQPLLHSSGGTIALLCVWAAGLTLFTGWSWVTIAEKLGGWILNILTFASNRTRRDDTWVDEDEYEDDEEYEDENHGKQHESRRARILRGALARRKRLAEKFINPMGRQTDAALFSGKRMDDDEEITYTARGVAADPDDVLFSGNRATQPEYDEYDPLLNGAPITEPVAVAAAATTATQSWAAPVEPVTQTPPVASVDVPPAQPTVAWQPVPGPQTGEPVIAPAPEGYPQQSQYAQPAVQYNEPLQQPVQPQQPYYAPAAEQPAQQPYYAPAPEQPVAGNAWQAEEQQSTFAPQSTYQTEQTYQQPAAQEPLYQQPQPVEQQPVVEPEPVVEETKPARPPLYYFEEVEEKRAREREQLAAWYQPIPEPVKEPEPIKSSLKAPSVAAVPPVEAAAAVSPLASGVKKATLATGAAATVAAPVFSLANSGGPRPQVKEGIGPQLPRPKRIRVPTRRELASYGIKLPSQRAAEEKAREAQRNQYDSGDQYNDDEIDAMQQDELARQFAQTQQQRYGEQYQHDVPVNAEDADAAAEAELARQFAQTQQQRYSGEQPAGANPFSLDDFEFSPMKALLDDGPHEPLFTPIVEPVQQPQQPVAPQQQYQQPQQPVPPQPQYQQPQQPVAPQPQYQQPQQPVAPQQQYQQPQQPVAPQQQYQQPQQPVAPQPQDTLLHPLLMRNGDSRPLHKPTTPLPSLDLLTPPPSEVEPVDTFALEQMARLVEARLADFRIKADVVNYSPGPVITRFELNLAPGVKAARISNLSRDLARSLSTVAVRVVEVIPGKPYVGLELPNKKRQTVYLREVLDNAKFRDNPSPLTVVLGKDIAGEPVVADLAKMPHLLVAGTTGSGKSVGVNAMILSMLYKAQPEDVRFIMIDPKMLELSVYEGIPHLLTEVVTDMKDAANALRWCVNEMERRYKLMSALGVRNLAGYNEKIAEADRMMRPIPDPYWKPGDSMDAQHPVLKKEPYIVVLVDEFADLMMTVGKKVEELIARLAQKARAAGIHLVLATQRPSVDVITGLIKANIPTRIAFTVSSKIDSRTILDQAGAESLLGMGDMLYSGPNSTLPVRVHGAFVRDQEVHAVVQDWKARGRPQYVDGITSDSESEGGAGGFDGAEELDPLFDQAVQFVTEKRKASISGVQRQFRIGYNRAARIIEQMEAQGIVSEQGHNGNREVLAPPPFD
# notes: FtsK, DNA translocase, Escherichia coli; wild-type protein, 1,329 amino acids, integral membrane protein; also called wild-type FtsK; source: expressed from the endogenous wild-type chromosomal locus, E. coli K-12 AB1157 derivative, in live cells; not shown: YPet, C-terminal, kept
# Molecular target: FtsK-YPet (wild-type E. coli FtsK with a C-terminal YPet fusion) (E. coli) (UniProt P46889)
# Test: condition: only molecules outside the cell center (before recruitment to midcell); quantitative live-cell fluorescence stoichiometry (widefield microscopy); live E. coli; intensities of FtsK-YPet spots outside the cell center in unbleached images
binder,measurement,value
B1,binding,no binding
